Measurements from patent publication US9637490B2, “Antifungal 5,6-dihydro-4-[(difluoroethyl)phenyl]-4H-pyrrolo[1,2-α][1,4]benzodiazepine and 4-(difluoroethyl)phenyl-6H-pyrrolo[1,2-α][1,4]benzodiazepine derivatives” (Janssen Pharmaceutica NV, priority 2010, dated 2017).
At least one structure is not confirmed: it was looked up by name or label, or the drawing left a doubt.

Test system: Microsporum canis (strain B68128)
Assay: Test D.4.1: activity against M. canis in guinea-pigs after oral treatment for 7 consecutive days
Assay type: in vivo
Details: oral 10 mg/kg once daily for 7 days; up to day 20
Procedure: The animals used in the tests described below were female Guinea pigs (Duncan-Hartley, Charles River, 200 g). These animals were kept in groups of 2 or 3 in cages of 56×33×20 cm^3. Food pellets (Carfil Quality) and water were available ad libitum in addition to a small daily amount of hay. Standard husbandry conditions were adopted: room temperature: 22° C., humidity level: 60% and a day-night cycle of 12 h.
For the preparation of inoculums, Microsporum canis (strain B68128) was grown on Sabouraud Dextrose Agar (SDA) plates for at least one week (7-10 days) before infection (27° C.). On the day of infection, spores were harvested by adding 4-5 ml sterile water on the plate and suspending the infectious material with a bend Pasteur pipette. From the recollected fluid, 10 μl was added to a KOVA counting chamber for determination of the number of spores in 1 square (average of several squares). If needed, additional dilutions (10× or 100×) were prepared. The average number of spores in one square×dilution×90.000=cfu/ml. An inoculum of 1×10^7 cfu/ml was prepared in a honey-water mixture (50%-50%).
In the tests described below, semi-quantitative lesion scores were given based on different clinical parameters. […]
Developments of lesions were evaluated following the semi-quantitative lesion scoring system (see Table 6) on days 3, 5, 7, 10, 12, 14, 17 and 20. […]

CCC(C)n1ncn(-c2ccc(N3CCN(c4ccc(OCC5COC(Cn6cncn6)(c6ccc(Cl)cc6Cl)O5)cc4)CC3)cc2)c1=O (stereo not shown) [Itraconazole, reference compound]
development of lesions (in words): never developed any lesions
